Reference: publication PMC5620210
No constants are given. Whether binding was seen depends on the method and setting. In cells and extracts the contact can be indirect. Some binding calls cover weakened binding; strength is not graded here.

Molecular target: WAVE2 (WASF2) (human (endogenous in WRO and FTC133)) (UniProt Q9Y6W5)
Experiment: co-IP; WAVE2 immunoprecipitation (anti-WAVE2 antibody 1:50, 4°C overnight, Protein G-sepharose) from lysates of WRO and FTC133 cells expressing HA-ABI3, western blot; also after 2 h with 20 uM LY294002 (more co-precipitate)

binding: binds
Substance: CYFIP1 (from UniProt Q7L576 1-1253)
